# No constants are given. Whether binding was seen depends on the method and setting. For part of these data: Binding seen in cells or lysates may run through a third protein. Some results given as binding are weak or reduced against the parent protein; the word gives no strength. Sequences can lack the tags named with a protein.
# By UniProt entry, the sequences of proteins in these tests, tags left out.
# UniProt Q15910: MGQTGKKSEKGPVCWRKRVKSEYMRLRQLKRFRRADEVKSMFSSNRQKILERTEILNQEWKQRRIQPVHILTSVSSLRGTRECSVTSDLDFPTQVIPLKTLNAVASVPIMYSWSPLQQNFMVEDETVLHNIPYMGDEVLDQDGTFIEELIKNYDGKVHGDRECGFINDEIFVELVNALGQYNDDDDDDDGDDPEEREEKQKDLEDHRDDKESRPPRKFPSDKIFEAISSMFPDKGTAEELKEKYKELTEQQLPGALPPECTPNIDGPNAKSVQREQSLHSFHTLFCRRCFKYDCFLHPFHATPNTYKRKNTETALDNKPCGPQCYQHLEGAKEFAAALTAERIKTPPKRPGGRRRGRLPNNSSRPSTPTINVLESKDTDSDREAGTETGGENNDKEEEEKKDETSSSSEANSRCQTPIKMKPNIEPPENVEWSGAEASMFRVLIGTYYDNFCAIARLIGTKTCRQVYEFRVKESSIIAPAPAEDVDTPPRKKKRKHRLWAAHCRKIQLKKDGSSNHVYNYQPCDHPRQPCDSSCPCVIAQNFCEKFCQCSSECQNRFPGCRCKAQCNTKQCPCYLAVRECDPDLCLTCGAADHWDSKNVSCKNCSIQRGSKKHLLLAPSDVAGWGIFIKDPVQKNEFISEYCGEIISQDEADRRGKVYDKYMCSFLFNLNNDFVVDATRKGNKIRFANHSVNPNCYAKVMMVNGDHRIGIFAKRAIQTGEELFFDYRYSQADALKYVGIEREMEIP
# UniProt O15054: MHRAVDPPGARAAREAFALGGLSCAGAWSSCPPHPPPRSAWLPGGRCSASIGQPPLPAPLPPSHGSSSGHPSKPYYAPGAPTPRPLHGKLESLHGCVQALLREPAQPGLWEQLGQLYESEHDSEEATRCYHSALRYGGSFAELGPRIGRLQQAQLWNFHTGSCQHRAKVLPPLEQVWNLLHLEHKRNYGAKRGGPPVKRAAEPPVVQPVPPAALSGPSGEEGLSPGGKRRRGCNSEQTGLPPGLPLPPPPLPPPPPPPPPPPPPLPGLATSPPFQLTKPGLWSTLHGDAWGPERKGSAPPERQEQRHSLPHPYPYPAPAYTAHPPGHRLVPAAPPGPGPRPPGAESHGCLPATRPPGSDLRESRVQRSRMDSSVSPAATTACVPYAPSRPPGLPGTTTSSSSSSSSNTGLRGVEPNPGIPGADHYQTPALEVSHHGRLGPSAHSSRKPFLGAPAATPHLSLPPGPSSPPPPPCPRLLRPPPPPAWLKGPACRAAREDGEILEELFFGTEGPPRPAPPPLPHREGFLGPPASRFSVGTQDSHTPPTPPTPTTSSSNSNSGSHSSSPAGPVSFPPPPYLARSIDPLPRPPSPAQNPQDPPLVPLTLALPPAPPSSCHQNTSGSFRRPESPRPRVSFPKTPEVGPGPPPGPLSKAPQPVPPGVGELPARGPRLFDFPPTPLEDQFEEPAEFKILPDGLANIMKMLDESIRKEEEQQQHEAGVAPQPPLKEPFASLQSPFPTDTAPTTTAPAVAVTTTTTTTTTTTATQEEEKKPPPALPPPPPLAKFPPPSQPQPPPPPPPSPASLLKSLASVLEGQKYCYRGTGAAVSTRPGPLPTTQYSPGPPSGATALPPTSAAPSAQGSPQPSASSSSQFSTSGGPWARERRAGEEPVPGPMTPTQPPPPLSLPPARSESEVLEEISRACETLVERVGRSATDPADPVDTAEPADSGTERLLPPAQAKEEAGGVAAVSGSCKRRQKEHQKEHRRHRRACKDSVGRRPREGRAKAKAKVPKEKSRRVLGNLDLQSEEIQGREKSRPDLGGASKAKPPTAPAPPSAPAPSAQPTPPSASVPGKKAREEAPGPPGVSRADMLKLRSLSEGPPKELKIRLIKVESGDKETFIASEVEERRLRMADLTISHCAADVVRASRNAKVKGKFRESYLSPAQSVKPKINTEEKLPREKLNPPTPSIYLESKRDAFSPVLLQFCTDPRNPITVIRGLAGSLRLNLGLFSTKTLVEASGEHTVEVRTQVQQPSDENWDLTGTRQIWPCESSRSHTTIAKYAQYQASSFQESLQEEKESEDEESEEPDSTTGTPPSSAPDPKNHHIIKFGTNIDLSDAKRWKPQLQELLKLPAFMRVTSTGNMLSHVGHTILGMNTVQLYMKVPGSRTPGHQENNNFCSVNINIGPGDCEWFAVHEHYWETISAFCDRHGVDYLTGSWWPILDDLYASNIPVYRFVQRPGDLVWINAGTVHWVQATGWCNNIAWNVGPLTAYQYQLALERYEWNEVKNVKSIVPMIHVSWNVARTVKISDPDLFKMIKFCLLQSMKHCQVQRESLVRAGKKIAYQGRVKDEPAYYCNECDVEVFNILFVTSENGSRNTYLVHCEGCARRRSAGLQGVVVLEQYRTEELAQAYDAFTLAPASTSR
# UniProt Q09028: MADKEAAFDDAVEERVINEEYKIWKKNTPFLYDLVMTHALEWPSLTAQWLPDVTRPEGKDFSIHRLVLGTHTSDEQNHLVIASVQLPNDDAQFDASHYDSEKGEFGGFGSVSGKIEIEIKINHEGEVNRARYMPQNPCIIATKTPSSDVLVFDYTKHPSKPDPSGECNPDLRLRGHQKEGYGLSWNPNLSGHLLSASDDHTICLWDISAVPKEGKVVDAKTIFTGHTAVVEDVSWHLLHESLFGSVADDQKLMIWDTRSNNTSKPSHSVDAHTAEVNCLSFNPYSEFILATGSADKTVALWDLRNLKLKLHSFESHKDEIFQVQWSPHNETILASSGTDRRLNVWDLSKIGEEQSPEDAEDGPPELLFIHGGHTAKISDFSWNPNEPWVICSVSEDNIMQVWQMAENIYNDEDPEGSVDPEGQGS
# T1: GST-tagged TSPYL2 (testis-specific protein, Y-encoded-like 2) (UniProt Q9H2G4)
# T1 sequence: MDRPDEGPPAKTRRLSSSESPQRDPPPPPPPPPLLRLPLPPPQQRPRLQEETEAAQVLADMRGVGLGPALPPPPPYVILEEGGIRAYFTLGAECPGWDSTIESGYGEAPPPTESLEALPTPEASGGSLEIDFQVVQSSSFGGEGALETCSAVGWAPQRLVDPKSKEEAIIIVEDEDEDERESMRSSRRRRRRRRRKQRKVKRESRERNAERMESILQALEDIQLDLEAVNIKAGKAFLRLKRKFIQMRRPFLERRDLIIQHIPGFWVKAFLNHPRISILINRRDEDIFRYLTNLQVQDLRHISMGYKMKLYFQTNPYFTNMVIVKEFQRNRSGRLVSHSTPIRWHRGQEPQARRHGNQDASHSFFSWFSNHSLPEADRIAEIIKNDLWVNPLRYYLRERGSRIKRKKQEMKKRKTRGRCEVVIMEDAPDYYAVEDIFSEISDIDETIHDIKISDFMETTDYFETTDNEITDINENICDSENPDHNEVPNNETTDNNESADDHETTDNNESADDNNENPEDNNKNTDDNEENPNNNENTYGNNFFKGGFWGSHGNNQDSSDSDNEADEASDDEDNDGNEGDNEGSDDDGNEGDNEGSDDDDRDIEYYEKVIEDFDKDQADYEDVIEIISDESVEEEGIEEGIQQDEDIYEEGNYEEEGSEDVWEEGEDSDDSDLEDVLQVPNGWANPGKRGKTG
# Assays:
# [1] = molecular target: T1, GST-tagged TSPYL2 (testis-specific protein, Y-encoded-like 2); experiment: pull-down; GST-TSPYL2 on Glutathione Sepharose 4B beads; 150 μg nuclear lysate of HEK293 cells (non-transfected, Flag-UTX- or Flag-JMJD3-transfected); 3 h at 4 °C with rotation; washed four times with IP buffer; western blot; only the target purified
# [2] = molecular target: T1, GST-tagged TSPYL2 (testis-specific protein, Y-encoded-like 2); experiment: pull-down; pull-down assay using HEK293 cells; data not shown; only the target purified
# [3] = molecular target: EZH2 of the bought EZH2 complex (EZH2, EED, SUZ12, RbAp48, and AEBP2) (UniProt Q15910); experiment: far-Western, overlay or dot blot; EZH2 complex (0.2 μg per well) separated on a 7.5% polyacrylamide gel and transferred to nitrocellulose; strips incubated with 2-μg GST-TSPYL2 or 0.6-μg GST in 5-ml TBST with 3% BSA overnight at 4 °C; probed by GST antibody; parallel strip probed with anti-EZH2; both purified
molecule,measurement,setting,value
Flag-JMJD3 (from UniProt O15054 1-1643) (enzyme),binding,[1],binds weakly
RbAp48 (from UniProt Q09028 1-425),binding,[2],binds weakly
"GST-tagged TSPYL2 (testis-specific protein, Y-encoded-like 2) (protein, UniProt Q9H2G4 1-693) MDRPDEGPPAKTRRLSSSESPQRDPPPPPPPPPLLRLPLPPPQQRPRLQEETEAAQVLADMRGVGLGPALPPPPPYVILEEGGIRAYFTLGAECPGWDSTIESGYGEAPPPTESLEALPTPEASGGSLEIDFQVVQSSSFGGEGALETCSAVGWAPQRLVDPKSKEEAIIIVEDEDEDERESMRSSRRRRRRRRRKQRKVKRESRERNAERMESILQALEDIQLDLEAVNIKAGKAFLRLKRKFIQMRRPFLERRDLIIQHIPGFWVKAFLNHPRISILINRRDEDIFRYLTNLQVQDLRHISMGYKMKLYFQTNPYFTNMVIVKEFQRNRSGRLVSHSTPIRWHRGQEPQARRHGNQDASHSFFSWFSNHSLPEADRIAEIIKNDLWVNPLRYYLRERGSRIKRKKQEMKKRKTRGRCEVVIMEDAPDYYAVEDIFSEISDIDETIHDIKISDFMETTDYFETTDNEITDINENICDSENPDHNEVPNNETTDNNESADDHETTDNNESADDNNENPEDNNKNTDDNEENPNNNENTYGNNFFKGGFWGSHGNNQDSSDSDNEADEASDDEDNDGNEGDNEGSDDDGNEGDNEGSDDDDRDIEYYEKVIEDFDKDQADYEDVIEIISDESVEEEGIEEGIQQDEDIYEEGNYEEEGSEDVWEEGEDSDDSDLEDVLQVPNGWANPGKRGKTG",binding,[3],binds

# Source: paper PMC6459796
